Where a name gives a salt, the structure may show the parent alone. Some of the results follow. Hit calls seldom repeat between salt and free forms of one compound.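 In K562 cells expressing nanoluciferase-fused kinases, luminescence was recorded at 4 h intervals between 2 and 18 h, normalized as percent of control with DMSO at 100% and a positive control at 0%. A significant (2 sigma) signal drop marks a time point as decreased. The authors' rule for a hit is not shown and takes in more than the number of time points.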
Assays:
Assay in all cases: number of time points (of 5) at which kinase-Nluc abundance scored as decreased, DMSO-normalised (count); higher = more persistent destabilization
Details in all cases: K562; 2-18 h
LMTK2 = LMTK2 (UniProt Q8IWU2)
LYN = LYN (UniProt P07948)
MAP2K1 = MAP2K1 (UniProt Q02750)
MAP2K2 = MAP2K2 (UniProt P36507)
MAP4K2 = MAP4K2 (UniProt Q12851)
MAPK1 = MAPK1 (UniProt P28482)
MAPK4 = MAPK4 (UniProt P31152)
MAPKAPK2 = MAPKAPK2 (UniProt P49137)
MKNK1 = MKNK1 (UniProt Q9BUB5)
NTRK2 = NTRK2 (UniProt Q16620)
NTRK3 = NTRK3 (UniProt Q16288)
PAK4 = PAK4 (UniProt O96013)
PBK = PBK (UniProt Q96KB5)
PDGFRB = PDGFRB (UniProt P09619)
PDK1 = PDK1 (UniProt Q15118)
PDPK1 = PDPK1 (UniProt O15530)
PIK4CA = PIK4CA (UniProt P42356)
PIK4CB = PIK4CB (UniProt Q9UBF8)
PLK1 = PLK1 (UniProt P53350)
PRKAA1 = PRKAA1 (UniProt Q13131)

Protein sequences, listed by entry. Tags and fused reporters are not part of them. Lines headed by an entry give the natural chain unless they say otherwise; changes in a name come on top.
UniProt P07948: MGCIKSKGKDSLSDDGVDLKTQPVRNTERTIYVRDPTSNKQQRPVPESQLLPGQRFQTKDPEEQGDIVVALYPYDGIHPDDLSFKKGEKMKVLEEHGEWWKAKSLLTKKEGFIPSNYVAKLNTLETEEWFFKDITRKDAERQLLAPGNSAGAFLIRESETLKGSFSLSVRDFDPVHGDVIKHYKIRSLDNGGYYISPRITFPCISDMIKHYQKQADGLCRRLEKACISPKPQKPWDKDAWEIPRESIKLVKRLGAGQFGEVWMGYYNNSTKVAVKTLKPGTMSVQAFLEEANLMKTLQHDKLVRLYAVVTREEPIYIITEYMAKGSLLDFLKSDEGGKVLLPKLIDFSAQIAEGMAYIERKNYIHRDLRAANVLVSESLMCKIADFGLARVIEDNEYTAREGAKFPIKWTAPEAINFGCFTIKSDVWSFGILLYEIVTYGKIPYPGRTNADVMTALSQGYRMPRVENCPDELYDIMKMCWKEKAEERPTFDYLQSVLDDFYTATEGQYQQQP
UniProt P28482, whole entry: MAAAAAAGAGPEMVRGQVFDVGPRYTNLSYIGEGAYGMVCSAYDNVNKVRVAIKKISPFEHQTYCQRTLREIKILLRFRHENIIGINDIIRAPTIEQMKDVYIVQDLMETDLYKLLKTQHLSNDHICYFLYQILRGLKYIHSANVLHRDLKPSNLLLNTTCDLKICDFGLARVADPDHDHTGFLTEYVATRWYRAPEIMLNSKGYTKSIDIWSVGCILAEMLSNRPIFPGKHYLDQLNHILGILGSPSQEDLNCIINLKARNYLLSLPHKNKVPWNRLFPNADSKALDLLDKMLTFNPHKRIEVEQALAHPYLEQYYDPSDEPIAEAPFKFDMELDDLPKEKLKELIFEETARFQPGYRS
UniProt P31152, whole entry: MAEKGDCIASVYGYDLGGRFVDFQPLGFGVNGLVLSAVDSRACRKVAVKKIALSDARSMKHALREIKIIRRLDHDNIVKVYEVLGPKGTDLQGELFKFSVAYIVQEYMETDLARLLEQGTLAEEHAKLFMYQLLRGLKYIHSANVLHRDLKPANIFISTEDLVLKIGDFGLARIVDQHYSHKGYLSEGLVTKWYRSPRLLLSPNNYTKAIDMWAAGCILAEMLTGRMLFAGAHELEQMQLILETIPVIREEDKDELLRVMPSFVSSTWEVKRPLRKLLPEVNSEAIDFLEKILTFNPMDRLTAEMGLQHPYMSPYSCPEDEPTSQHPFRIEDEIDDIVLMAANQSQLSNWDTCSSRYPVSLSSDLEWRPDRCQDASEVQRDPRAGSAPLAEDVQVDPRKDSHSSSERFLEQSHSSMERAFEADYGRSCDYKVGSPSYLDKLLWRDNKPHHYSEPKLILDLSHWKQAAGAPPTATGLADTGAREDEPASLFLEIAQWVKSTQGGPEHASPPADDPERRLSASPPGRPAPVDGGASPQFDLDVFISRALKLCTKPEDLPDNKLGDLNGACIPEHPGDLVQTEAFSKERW
UniProt P49137, whole entry, looked up: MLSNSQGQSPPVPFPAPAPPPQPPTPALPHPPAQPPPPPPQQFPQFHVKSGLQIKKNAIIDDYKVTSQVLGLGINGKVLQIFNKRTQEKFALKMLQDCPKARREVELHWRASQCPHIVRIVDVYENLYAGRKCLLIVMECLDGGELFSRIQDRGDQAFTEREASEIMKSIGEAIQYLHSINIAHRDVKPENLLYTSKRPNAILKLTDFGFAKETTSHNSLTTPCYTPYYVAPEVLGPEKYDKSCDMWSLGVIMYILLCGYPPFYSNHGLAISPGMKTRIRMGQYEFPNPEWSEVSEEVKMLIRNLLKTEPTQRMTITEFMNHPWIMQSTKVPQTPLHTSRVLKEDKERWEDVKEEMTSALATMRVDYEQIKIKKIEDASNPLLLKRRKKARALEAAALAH
UniProt Q9BUB5: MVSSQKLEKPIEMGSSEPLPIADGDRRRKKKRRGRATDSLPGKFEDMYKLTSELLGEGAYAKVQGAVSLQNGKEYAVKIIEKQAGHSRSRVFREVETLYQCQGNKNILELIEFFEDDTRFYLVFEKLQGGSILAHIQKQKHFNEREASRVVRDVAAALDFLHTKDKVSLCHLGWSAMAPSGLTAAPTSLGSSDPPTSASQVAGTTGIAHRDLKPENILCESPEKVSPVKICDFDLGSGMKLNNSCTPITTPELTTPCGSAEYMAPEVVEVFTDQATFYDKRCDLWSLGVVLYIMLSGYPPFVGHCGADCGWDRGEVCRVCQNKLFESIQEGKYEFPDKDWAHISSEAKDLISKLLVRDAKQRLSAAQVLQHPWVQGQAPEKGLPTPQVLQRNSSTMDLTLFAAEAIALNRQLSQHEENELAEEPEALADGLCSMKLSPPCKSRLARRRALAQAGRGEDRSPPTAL
UniProt Q96KB5: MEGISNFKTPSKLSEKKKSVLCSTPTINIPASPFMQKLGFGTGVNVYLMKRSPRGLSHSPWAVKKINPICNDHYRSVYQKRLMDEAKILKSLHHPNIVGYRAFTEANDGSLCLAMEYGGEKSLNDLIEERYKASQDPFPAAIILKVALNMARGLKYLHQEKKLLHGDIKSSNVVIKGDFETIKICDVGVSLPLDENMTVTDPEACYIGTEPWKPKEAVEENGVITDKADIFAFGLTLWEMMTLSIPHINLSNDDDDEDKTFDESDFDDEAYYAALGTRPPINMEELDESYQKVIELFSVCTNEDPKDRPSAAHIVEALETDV
UniProt Q15118, whole entry, looked up: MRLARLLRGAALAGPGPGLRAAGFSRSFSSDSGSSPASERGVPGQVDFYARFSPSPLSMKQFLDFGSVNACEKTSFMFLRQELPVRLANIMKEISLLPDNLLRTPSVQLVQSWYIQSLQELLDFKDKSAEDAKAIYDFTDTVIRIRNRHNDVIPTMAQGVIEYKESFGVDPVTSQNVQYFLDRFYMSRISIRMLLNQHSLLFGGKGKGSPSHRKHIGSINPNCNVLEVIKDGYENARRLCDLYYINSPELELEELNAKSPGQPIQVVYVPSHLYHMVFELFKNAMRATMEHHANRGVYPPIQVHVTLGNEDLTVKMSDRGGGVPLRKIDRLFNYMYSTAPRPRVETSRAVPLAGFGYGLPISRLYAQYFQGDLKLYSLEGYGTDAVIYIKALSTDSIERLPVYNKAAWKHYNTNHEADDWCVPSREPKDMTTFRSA
UniProt P42356, whole entry, looked up: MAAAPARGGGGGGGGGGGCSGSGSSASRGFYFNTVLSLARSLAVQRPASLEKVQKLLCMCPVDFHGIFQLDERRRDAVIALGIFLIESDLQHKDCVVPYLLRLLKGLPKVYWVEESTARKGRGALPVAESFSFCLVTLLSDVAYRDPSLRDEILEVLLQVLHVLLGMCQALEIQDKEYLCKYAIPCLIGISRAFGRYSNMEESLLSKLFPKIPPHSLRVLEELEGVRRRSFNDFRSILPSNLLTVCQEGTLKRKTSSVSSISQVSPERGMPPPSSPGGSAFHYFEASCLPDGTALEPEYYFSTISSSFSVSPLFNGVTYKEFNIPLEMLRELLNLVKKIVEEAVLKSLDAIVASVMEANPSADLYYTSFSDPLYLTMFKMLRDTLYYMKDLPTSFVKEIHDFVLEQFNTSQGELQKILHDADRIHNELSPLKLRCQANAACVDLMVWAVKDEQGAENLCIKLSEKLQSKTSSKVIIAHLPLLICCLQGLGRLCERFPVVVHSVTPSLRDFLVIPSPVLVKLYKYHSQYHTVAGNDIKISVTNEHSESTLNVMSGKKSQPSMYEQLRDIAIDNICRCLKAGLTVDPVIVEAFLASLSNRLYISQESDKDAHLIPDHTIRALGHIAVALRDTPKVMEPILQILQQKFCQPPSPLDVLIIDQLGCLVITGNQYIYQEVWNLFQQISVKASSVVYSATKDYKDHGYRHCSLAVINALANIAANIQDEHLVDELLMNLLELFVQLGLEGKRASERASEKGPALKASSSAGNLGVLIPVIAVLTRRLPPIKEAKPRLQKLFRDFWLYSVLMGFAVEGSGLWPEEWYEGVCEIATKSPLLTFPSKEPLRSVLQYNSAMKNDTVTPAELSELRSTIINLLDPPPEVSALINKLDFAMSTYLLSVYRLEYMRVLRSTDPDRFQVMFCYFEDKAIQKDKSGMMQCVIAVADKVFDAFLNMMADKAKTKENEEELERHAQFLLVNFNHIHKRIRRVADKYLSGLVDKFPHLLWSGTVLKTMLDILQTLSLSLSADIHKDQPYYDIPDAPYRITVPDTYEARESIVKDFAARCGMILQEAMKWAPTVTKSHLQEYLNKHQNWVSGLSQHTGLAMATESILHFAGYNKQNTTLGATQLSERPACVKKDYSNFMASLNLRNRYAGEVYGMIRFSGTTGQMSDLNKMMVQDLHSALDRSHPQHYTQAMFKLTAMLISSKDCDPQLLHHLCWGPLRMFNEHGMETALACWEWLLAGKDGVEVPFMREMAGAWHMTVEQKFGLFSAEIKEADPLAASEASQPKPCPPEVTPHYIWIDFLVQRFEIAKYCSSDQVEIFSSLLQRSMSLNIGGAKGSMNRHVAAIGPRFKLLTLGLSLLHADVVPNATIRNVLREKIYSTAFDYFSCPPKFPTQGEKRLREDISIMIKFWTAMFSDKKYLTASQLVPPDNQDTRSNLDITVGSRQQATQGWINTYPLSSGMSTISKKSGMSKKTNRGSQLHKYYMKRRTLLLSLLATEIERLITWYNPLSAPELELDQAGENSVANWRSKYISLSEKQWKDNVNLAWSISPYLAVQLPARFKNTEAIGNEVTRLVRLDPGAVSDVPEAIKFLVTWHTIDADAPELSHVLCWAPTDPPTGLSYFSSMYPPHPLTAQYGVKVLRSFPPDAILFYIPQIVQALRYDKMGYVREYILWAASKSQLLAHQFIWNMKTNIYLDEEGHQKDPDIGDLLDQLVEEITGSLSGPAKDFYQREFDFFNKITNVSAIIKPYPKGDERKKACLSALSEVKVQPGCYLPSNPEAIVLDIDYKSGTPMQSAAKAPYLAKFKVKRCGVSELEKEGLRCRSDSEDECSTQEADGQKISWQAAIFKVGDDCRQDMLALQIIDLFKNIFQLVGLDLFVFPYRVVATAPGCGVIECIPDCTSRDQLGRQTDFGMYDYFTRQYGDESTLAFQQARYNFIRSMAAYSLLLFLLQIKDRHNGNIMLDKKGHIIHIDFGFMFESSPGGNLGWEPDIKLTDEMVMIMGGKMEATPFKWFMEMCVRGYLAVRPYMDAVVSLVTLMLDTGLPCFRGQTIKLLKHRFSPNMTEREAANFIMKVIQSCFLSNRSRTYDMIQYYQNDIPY
UniProt P53350, whole entry: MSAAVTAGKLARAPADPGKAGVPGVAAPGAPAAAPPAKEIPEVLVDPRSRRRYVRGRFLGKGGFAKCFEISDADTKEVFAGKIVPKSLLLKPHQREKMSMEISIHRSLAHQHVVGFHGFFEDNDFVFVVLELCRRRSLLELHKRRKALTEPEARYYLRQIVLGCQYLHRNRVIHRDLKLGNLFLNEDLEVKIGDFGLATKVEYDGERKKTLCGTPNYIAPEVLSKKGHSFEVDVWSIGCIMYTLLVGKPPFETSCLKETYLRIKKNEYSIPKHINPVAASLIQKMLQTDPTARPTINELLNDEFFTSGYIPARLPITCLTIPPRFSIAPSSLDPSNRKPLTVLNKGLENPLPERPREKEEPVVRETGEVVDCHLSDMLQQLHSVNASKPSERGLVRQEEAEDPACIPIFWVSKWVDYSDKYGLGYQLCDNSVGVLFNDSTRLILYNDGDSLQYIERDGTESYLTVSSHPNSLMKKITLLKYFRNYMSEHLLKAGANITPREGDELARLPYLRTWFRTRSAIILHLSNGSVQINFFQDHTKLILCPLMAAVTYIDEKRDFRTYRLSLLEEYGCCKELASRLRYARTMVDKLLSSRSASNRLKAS
UniProt Q13131: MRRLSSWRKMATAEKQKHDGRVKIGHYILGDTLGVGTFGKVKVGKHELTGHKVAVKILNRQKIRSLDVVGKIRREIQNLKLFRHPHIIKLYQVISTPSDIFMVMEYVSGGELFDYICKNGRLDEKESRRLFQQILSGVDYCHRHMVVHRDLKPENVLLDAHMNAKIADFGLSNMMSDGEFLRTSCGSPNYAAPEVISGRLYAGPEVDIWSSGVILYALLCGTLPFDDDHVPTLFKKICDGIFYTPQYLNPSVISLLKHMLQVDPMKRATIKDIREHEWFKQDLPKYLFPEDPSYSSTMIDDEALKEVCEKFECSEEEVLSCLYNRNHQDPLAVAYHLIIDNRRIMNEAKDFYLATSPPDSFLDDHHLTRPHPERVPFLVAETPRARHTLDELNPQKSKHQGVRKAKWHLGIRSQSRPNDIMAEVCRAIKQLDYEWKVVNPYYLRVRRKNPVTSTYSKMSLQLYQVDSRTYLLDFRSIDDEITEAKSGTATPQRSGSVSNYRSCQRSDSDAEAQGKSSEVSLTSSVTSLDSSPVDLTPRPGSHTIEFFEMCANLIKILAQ

Measured: number of time points

Cn1cc(-c2ccc(F)c(C(F)(F)F)c2)nc1C1CCN(c2ncnc3[nH]ncc23)CC1 (10 µM)
0: all assays above

COc1cc2ncnc(Nc3ccc(NC(=O)c4ccccc4)cc3)c2cc1OC [Aurora kinase inhibitor-2] (2.5 µM)
1: PDPK1
0: all other assays above

Nc1ncc(-c2ccc(C(=O)N3CCNCC3)cc2)nc1-c1ccc(C(F)(F)F)cc1 (10 µM)
0: all assays above

CCOC(=O)c1c2c3c(cccc3[nH]c1=O)C(=O)c1ccccc1-2 (10 µM)
0: all assays above

COc1cc(N2CCC(N(C)C)CC2)ccc1Nc1ncc(Cl)c(Nc2ccccc2P(C)(C)=O)n1 (2.5 µM)
0: all assays above

COc1cnccc1Nc1nc(-c2nn(Cc3c(F)cc(OCCO)cc3F)c3ccccc23)ncc1OC (10 µM)
0: all assays above

Cc1ccc(-c2ccc3c(ccc4sc5c(c43)NC[C@@H](C)NC5=O)n2)cn1 (10 µM)
0: all assays above

CNC(=O)c1cc(Oc2ccc3nc(N[C@@H]4CCCC[C@H]4O)sc3c2)ccn1 (10 µM)
0: all assays above

CCOc1ccccc1C=C1C(=O)Nc2ccccc21 (10 µM)
2: MAPK4
1: LMTK2 | MKNK1 | NTRK2 | NTRK3
0: all other assays above

Nc1[nH]c(=O)nc2c1ncn2[C@@H]1O[C@H](CO)[C@@H](O)[C@H]1O [Crotonoside] (10 µM)
0: all assays above

NS(=O)(=O)c1ccc(N2N=C(c3ccccc3)CC2c2ccccc2)cc1 (stereo not given) (10 µM)
0: all assays above

O=C1NC(=O)C(=Cc2ccc3c(c2)OCO3)S1 (10 µM)
0: all assays above

Nc1cc(C(F)(F)F)c(-c2nc(N3CCOCC3)nc(N3CCOCC3)n2)cn1 [Bimiralisib] (10 µM)
4: NTRK3 | PDPK1
2: NTRK2
1: PDGFRB | PRKAA1
3: PIK4CA | PIK4CB
0: all other assays above

C=CC(=O)Nc1cccc(Oc2nc(Nc3ccc(N4CCN(C)CC4)cc3)nc3ccoc23)c1 [Poseltinib] (10 µM)
0: all assays above

CCn1nc(C2CCN(C(=O)CCO)CC2)nc1-c1cnc(N)c(-c2nnc(C(C)(C)C)o2)n1 (10 µM)
0: all assays above

CCCCCCCC/C=C\CCCCCCCC(=O)NCC(=O)O [N-Oleoyl glycine] (10 µM)
5: PLK1
0: all other assays above

COc1nc(-c2ccnc(NC(=O)C3CC3)c2)sc1C(N)=O [GSK-3β inhibitor 2] (10 µM)
3: LMTK2
0: all other assays above

O=C(O)c1cc(O)c2c(c1)[C@@H]([C@H]1c3cc(C(=O)O)cc(O)c3C(=O)c3c(O[C@@H]4O[C@H](CO)[C@@H](O)[C@H](O)[C@H]4O)cccc31)c1cccc(O[C@@H]3O[C@H](CO)[C@@H](O)[C@H](O)[C@H]3O)c1C2=O [Sennoside B] (2.5 µM)
0: all assays above

Two records picked at random from the list so far:
O=C(O)c1cc(O)c2c(c1)[C@@H]([C@H]1c3cc(C(=O)O)cc(O)c3C(=O)c3c(O[C@@H]4O[C@H](CO)[C@@H](O)[C@H](O)[C@H]4O)cccc31)c1cccc(O[C@@H]3O[C@H](CO)[C@@H](O)[C@H](O)[C@H]3O)c1C2=O [Sennoside B] (2.5 µM)
0: all assays above

CCn1nc(C2CCN(C(=O)CCO)CC2)nc1-c1cnc(N)c(-c2nnc(C(C)(C)C)o2)n1 (10 µM)
0: all assays above

More results

O=Nc1c(-c2c(O)[nH]c3ccccc23)[nH]c2ccccc12 [Indirubin-3'-monoxime] (2.5 µM)
2: NTRK3
3: NTRK2
0: all other assays above

COc1ccc(CCNc2ncc3c(=O)n(-c4cccc(F)c4)c(=O)[nH]c3n2)cc1OC (2 µM)
0: all assays above

CCOc1c([C@H](C)n2nc(C)c3c(N)ncnc32)cc(Cl)c(F)c1[C@@H]1CNC(=O)C1 [Parsaclisib (hydrochloride)] (10 µM)
0: all assays above

Cc1cc(Nc2cc(CN3CCOCC3)c3nc(C)c(Cc4ccc(Cl)cc4F)n3n2)n[nH]1 [Gandotinib] (2.5 µM)
0: all assays above

Nc1nc2cc(-c3ccc4ncc(C(=O)N5CCOCC5)n4c3)ccc2o1 [Serabelisib] (10 µM)
0: all assays above

CCN1/C(=C/C(C)=O)Sc2ccc(OC)cc21 (10 µM)
2: LYN
1: MAP2K2 | MAP4K2 | NTRK2 | PAK4 | PDK1 | PIK4CB | PRKAA1
3: LMTK2 | MAPK1
0: all other assays above

From the supplement of paper PMC12823440, “Inhibitors supercharge kinase turnover through native proteolytic circuits” (Nature, 2025)
